# According to PubChem BioAssay AID720504 (National Center for Advancing Translational Sciences (NCATS), 2013):
# Protein sequences, listed by entry. Tags and fused reporters are not part of them.
# UniProt P53350, whole entry, looked up: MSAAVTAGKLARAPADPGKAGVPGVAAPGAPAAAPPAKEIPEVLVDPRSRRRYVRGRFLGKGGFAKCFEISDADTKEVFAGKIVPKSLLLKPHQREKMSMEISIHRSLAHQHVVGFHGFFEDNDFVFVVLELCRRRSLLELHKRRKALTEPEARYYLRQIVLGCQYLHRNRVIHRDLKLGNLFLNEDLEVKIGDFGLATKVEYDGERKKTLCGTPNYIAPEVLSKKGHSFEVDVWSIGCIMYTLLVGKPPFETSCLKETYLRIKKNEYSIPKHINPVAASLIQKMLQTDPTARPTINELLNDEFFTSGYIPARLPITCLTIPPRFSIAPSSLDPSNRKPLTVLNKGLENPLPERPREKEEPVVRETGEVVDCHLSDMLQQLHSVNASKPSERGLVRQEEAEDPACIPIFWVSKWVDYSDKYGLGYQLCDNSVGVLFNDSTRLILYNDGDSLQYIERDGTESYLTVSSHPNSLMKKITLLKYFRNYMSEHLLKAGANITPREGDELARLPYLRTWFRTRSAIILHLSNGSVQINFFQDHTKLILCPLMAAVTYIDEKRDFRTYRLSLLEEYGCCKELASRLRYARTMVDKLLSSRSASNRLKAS
# Hit rate of the full screen: of about 360,000 compounds, about 10,000 (2.8%) were called active. The inconclusive results got no clear call from the source; some entries with a clear call stand among them for comparison. Calls follow the shape of the dose curve; as a rule, active = well fitted inhibition curve with a large enough effect; inconclusive = small, poorly fitted or top-dose-only effect; inactive = flat fitted curve, though single readings scatter. Potencies of inconclusive entries are doubtful fits and often do not repeat.
# Target: Serine/threonine-protein kinase PLK1 (Homo sapiens) (UniProt P53350)
# Test: qHTS for Inhibitors of PLK1-PDB (polo-like kinase 1 - polo-box domain): Primary Screen; also: nearly all actives have a fitted effect of over 65% in size; as to max response, negative = inhibition: series mostly up to about 57 µM
# Details: Plk1 PBD binding of FITC phosphopeptide, fluorescence polarization
# % is scaled to controls: 0 for no effect and ±100 for the full control effect; potency is read from the fitted curve at half-maximal effect.
SMILES,"max response, negative = inhibition",Potency
COc1ccccc1NC(=O)c1sc2nc(-c3ccco3)ccc2c1N,inconclusive: -29.5% [inhibitor],
CCOC(=S)NC(=O)c1sc2ccccc2c1Cl,inconclusive: -32.6% [inhibitor],
COc1cccc(C(O)c2nc(-c3ccc4ccccc4c3)cs2)c1 (stereo unspecified),inactive: -0.823%,
CC1CCCCC12NC(=O)N(CC(=O)Nc1ccccc1N1CCOCC1)C2=O (stereo unspecified),,"inconclusive: 26.7 µM [inhibitor, partial curve]"
CC(=O)C(=Cc1cccc(C#N)c1)C(=O)c1ccccc1,,"inconclusive: 23.8 µM [inhibitor, partial curve]"
Cc1cccc(C(=O)NNS(=O)(=O)c2ccccc2[N+](=O)[O-])c1,,"inconclusive: 26.7 µM [inhibitor, single point]"
C/C=C/COC(=O)c1[nH]c2c(c1C)C(=O)CC(c1ccco1)C2 (stereo unspecified),,"inconclusive: 29.9 µM [inhibitor, partial curve]"
COc1cccc(C2C(C(=O)c3cccs3)=C(O)C(=O)N2CCN2CCOCC2)c1OC (stereo unspecified),inconclusive: -34.1% [inhibitor],
Cc1c(C(C)(C)C)c(C=S)n2ccccc12,,"inconclusive: 26.7 µM [inhibitor, partial curve]"
CCN1C(=O)[C@H]2[C@@H](c3ccc(C(F)(F)F)cc3)N[C@]3(CCCN(Cc4ccco4)C3=O)[C@H]2C1=O,inactive: -6.75%,
COc1ccc(C(=O)/C(=C\c2ccco2)N2C=CC=CC2=C(C#N)C#N)cc1,,active: 21.2 µM
Cc1cc(C)n(-c2nc3ccccc3c(=O)n2OCc2ccc(Cl)cc2)n1,,"inconclusive: 29.9 µM [inhibitor, partial curve]"
Cc1nc2ccccc2c(=O)n1NC(=O)c1ccc([N+](=O)[O-])cc1,,"inconclusive: 37.7 µM [inhibitor, partial curve]"
Cc1ccc(SCCCn2cncn2)cc1,,"inconclusive: 26.7 µM [inhibitor, partial curve]"
c1ccc(-c2nnsc2-c2nc3ccccc3[nH]2)cc1,,"inconclusive: 29.9 µM [inhibitor, single point]"
COC(=O)C1=C(C)NC(=O)NC1c1ccc(N2CCC(c3ccccc3)=N2)cc1 (stereo unspecified),,active: 26.7 µM
CCOc1ccc2nc(NCCNC(=O)C(C)(C)C)c(C)cc2c1,,active: 26.7 µM
O=C(c1cc(F)c(F)cc1Cl)N1CCN(c2ccc([N+](=O)[O-])c3ncccc23)CC1,,"inconclusive: 26.7 µM [inhibitor, partial curve, poor fit]"
COC(=O)c1ccc(C)c(NC(=O)c2ccc(Cn3cc([N+](=O)[O-])cn3)o2)c1,inactive: -12.9%,
CC1CC(=O)Nc2ccccc2N1S(=O)(=O)c1cccc(Cl)c1 (stereo unspecified),,"inconclusive: 21.2 µM [inhibitor, partial curve]"
Cc1cc(=O)[nH]c(SCc2cccc(F)c2)n1,,"inconclusive: 26.7 µM [inhibitor, single point]"
COC(=O)c1sccc1NC(=O)Cn1nnc(-c2ccc(C)cc2)n1,inactive: -3.05%,
Cc1ccc(/C=C(\NC(=O)c2ccccc2)C(=O)NCCN2CCOCC2)o1,,"inconclusive: 21.2 µM [inhibitor, single point]"
O=C(NC(=S)Nn1cnnc1)c1ccc(F)cc1Cl,,"inconclusive: 29.9 µM [inhibitor, partial curve]"

SMILES,"max response, negative = inhibition",Potency
O=c1[nH]c(C2CCN(S(=O)(=O)c3ccccc3)CC2)nc2c1nnn2Cc1ccccc1,,active: 23.8 µM
CCOC(=O)C1=C(C)NC(C)=C(C(=O)OCC)C1C(=O)OCC(=O)NCc1ccco1,inactive: -1.77%,
CSCC[C@H](NC(=O)OC(C)(C)C)c1nnc(SCC(N)=O)o1,inactive: -4.86%,
CCOc1ccc(-n2ccnc(SCC(=O)NCc3cccc(OC)c3)c2=O)cc1,,"inconclusive: 23.8 µM [inhibitor, single point]"
C=C1C(=O)[C@]23C[C@H]1CC[C@H]2[C@]1(C)[C@@H](OC(C)=O)CC[C@@](C)(C(=O)O)[C@H]1C[C@@H]3O,,"inconclusive: 23.8 µM [inhibitor, single point]"
O=C(CN1CCN(c2ccccc2)CC1)Nc1cccc(C(F)(F)F)c1,inactive: 2.16%,
COc1ccc(N=C2NC(=O)/C(=C\C=C\c3ccccc3)S2)cc1,inactive: -8.31%,
CCOc1ccccc1Nc1nc(-c2sc(C)nc2C)cs1,inactive: -1.64%,
Cc1csc(NC(=O)c2cccc(S(=O)(=O)N3CCN(C)CC3)c2)n1,,"inconclusive: 37.7 µM [inhibitor, single point]"
CCNc1nc(Oc2ccc(=O)[nH]n2)nc(SC)n1,inactive: -4%,
CN(C)/C=N/c1nc2nccc(-c3ccccc3)n2n1,,active: 26.7 µM
COCCn1c(SCC(=O)N2CCCC2)nnc1C(C)C,inactive: -1.05%,
COc1cccc(OCCNC(=O)CSc2ccc(C(F)(F)F)cc2[N+](=O)[O-])c1,,"inconclusive: 18.9 µM [inhibitor, single point]"
O=C(NCCCn1ccnc1)c1ccc(COc2ccccc2)o1,inactive: -2.47%,
COc1ccc(/C=C2/C(=O)ON=C2C)cc1Br,,active: 1.89 µM
Cc1cc(C)nc(NS(=O)(=O)c2cccs2)c1,inactive: -8.08%,
Cc1ccc(C2=NCCn3c2c2ccc([N+](=O)[O-])cc2[n+]3[O-])cc1,inactive: -13.1%,
NC(=O)c1ccc[n+](CCC[n+]2cccc(C(N)=O)c2)c1,,"inconclusive: 26.7 µM [inhibitor, single point]"
COc1ccc(OC)c(C2=NOC(C(=O)Nc3ccccc3SC)C2)c1 (stereo unspecified),,"inconclusive: 18.9 µM [inhibitor, partial curve]"
O=C(O)CCC(=O)N1N=C(c2c(-c3ccccc3)c3cc(Cl)ccc3[nH]c2=O)CC1c1ccccc1 (stereo unspecified),,"inconclusive: 67 µM [inhibitor, partial curve]"
COc1cc2ccccc2cc1C(=O)NC(=S)Nc1cc(C(=O)O)ccc1C,,"inconclusive: 23.8 µM [inhibitor, single point]"
COCCCn1c(Cc2csc(Nc3ccccc3)n2)nnc1SCC(N)=O,,"inconclusive: 23.8 µM [inhibitor, partial curve]"
COC(=O)CSc1ncnc2c1cnn2Cc1ccccc1,inactive: -19.3%,
Cc1cccc(/C=N/n2c(-c3ccco3)n[nH]c2=S)c1,,"inconclusive: 26.7 µM [inhibitor, partial curve]"

# Reformatted: 3 of the compounds above.
SMILES	max response, negative = inhibition	Potency
CCNc1nc(Oc2ccc(=O)[nH]n2)nc(SC)n1	inactive: -4%	
O=C(NCCCn1ccnc1)c1ccc(COc2ccccc2)o1	inactive: -2.47%	
COc1ccc(OC)c(C2=NOC(C(=O)Nc3ccccc3SC)C2)c1 (stereo unspecified)		inconclusive: 18.9 µM [inhibitor, partial curve]

# Carrying on:

SMILES,"max response, negative = inhibition",Potency
COc1ccc(CNC(=O)CSc2nc(-c3ccccc3)cc(-c3cccs3)c2C#N)cc1,inactive: -9.43%,
COc1ccc(C(=O)c2coc3c2C(=O)C(=O)c2ccccc2-3)cc1,,"inconclusive: 23.8 µM [inhibitor, partial curve]"
Cc1c(Cl)cccc1Nc1n[nH]c(=S)s1,,"inconclusive: 23.8 µM [inhibitor, partial curve]"
O=S(=O)(NCCCN1CCOCC1)c1ccc(Cl)s1,,active: 8.44 µM
COC(=O)Cn1c2ccc(F)cc2c2nc(C)sc21,,"inconclusive: 33.6 µM [inhibitor, single point]"
O=C(N/N=C/c1ccc(-c2cccc([N+](=O)[O-])c2)o1)[C@H]1C[C@@H]1c1ccccc1,inactive: -5.16%,
CCOc1ccc(NC(=S)NNc2ccnc3cc(Cl)ccc23)cc1,,"inconclusive: 18.9 µM [inhibitor, partial curve, poor fit]"
Oc1ccc(/C=N/n2c(COc3ccccc3)n[nH]c2=S)c(O)c1,,"inconclusive: 26.7 µM [inhibitor, partial curve]"
Cn1cccc1/C=N/n1c(-c2ccc(C(C)(C)C)cc2)n[nH]c1=S,,"inconclusive: 29.9 µM [inhibitor, single point]"
CN(C)CCCNCCCNC(=O)c1ccncc1,inactive: 2.82%,
COc1cccc(OCc2nnc(SCc3cc(=O)[nH]c4ccccc34)o2)c1,,active: 23.8 µM
CCCN1CCC(=O)N([C@H](CSc2ccc(OC)cc2)CC(C)C)CC1,,"inconclusive: 21.2 µM [inhibitor, partial curve]"
Cc1oc2ccccc2c1-c1cn2c(n1)SCC2,,"inconclusive: 29.9 µM [inhibitor, single point]"
NC(=S)NNC(=S)Nc1ccccc1,,"inconclusive: 21.2 µM [inhibitor, single point]"
Fc1ccc(N=C2NN=C(c3cc(F)ccc3F)CS2)cc1,,"inconclusive: 13.4 µM [inhibitor, partial curve]"
CC(=O)N1CCOc2ccc(S(=O)(=O)NCc3ccc(F)cc3)cc21,,"inconclusive: 21.2 µM [inhibitor, single point]"
CC1(C)CC(=O)C(C(C2=C(O)CC(C)(C)CC2=O)c2ccco2)C(=O)C1 (stereo unspecified),,active: 5.32 µM
Cn1cnc([N+](=O)[O-])c1S(=O)(=O)Oc1ccc(Cl)cc1,,"inconclusive: 3.36 µM [inhibitor, partial curve]"
CN(C)CCNc1oc(-c2ccccc2F)nc1C#N,,"inconclusive: 21.2 µM [inhibitor, partial curve]"
O=C(Cc1ccc(Cl)cc1)Nc1cccc(C(=O)Nc2ccccc2C(=O)O)c1,,"inconclusive: 18.9 µM [inhibitor, partial curve]"
Cc1sc2ncnc(SCc3ccc(C(=O)O)cc3)c2c1C,,"inconclusive: 23.8 µM [inhibitor, partial curve]"
COc1ccc(CCC(C(O)C(F)(F)F)S(=O)c2ccccc2)cc1 (stereo unspecified),,"inconclusive: 26.7 µM [inhibitor, partial curve]"
Cc1cc(C)[n+](-c2ccc(Oc3ccccc3)c(S(=O)(=O)[O-])c2)[nH]1,,active: 26.7 µM

# An excerpt from above in order of formula weight, low to high:
SMILES,"max response, negative = inhibition",Potency
CCOc1ccccc1Nc1nc(-c2sc(C)nc2C)cs1,inactive: -1.64%,
COC(=O)C1=C(C)NC(=O)NC1c1ccc(N2CCC(c3ccccc3)=N2)cc1 (stereo unspecified),,active: 26.7 µM
COCCCn1c(Cc2csc(Nc3ccccc3)n2)nnc1SCC(N)=O,,"inconclusive: 23.8 µM [inhibitor, partial curve]"
